The source of these data is paper PMC11414077, “Novel thiazole-based cyanoacrylamide derivatives: DNA cleavage, DNA/BSA binding properties and their anticancer behaviour against colon and breast cancer cells” (BMC Chemistry, 2024).

Structures are written as SMILES.

The subject of one data set is CT-DNA-EtBr. Put plainly: Ethidium bromide quenching (displacement) assay. It counts as binding, calf. The note with it: Scatchard method. On the procedure: EtBr is a conventional intercalator whose fluorescence intensity intensifies in response to CT-DNA interaction. Solution of CT-DNA-EtBr with final concentrations of EtBr (20 µM) and CT-DNA (100 µM) in Tris–HCl buffer solution (pH = 7.1) was prepared, then compounds were solubilized in DMSO, added to the prepared solution to attain a range of concentration (0–160 µM) and (0–80 µM) for 3b and 3c, respectively. Then, the mixtures were incubated 3 min after each addition and the emission spectra (540–710 nm) were recorded using an excitation wavelength of 520 nm.
The interaction mode between compound and CT-DNA can be discriminated through fluorescence spectroscopy with the EtBr–CT-DNA system. EtBr is a classic indicator of intercalation where an intense fluorescence signal is emitted from the EtBr-CT-DNA system through intercalation of EtBr between adjacent DNA base pairs with no obvious signal for unaccompanied EtBr. […] F0/F= 1+KsvQ= 1+kqτ0[Q] where F0 and F are fluorescence intensities in the absence and presence of the compound used for quenching, respectively; KSV is a linear Stern–Volmer quenching constant; [Q] is the concentration of the quenching compound and τ0 is the fluorescence lifetime of the fluorophore (10^−8 s) in absence of the compound responsible for quenching. […] Also, the binding constant (Kb) and the number of binding sites (n) were determined by the Scatchard method. […]

A further data set concerns CT-DNA. Put plainly: CT-DNA UV-Visible absorption spectrophotometric titration. It counts as binding, calf. The note with it: on adding CT-DNA 0–60 μM. On the procedure: CT-DNA stock solution was prepared by dissolving CT-DNA in Tris/NaCl buffer (pH 7.1). Then, it was stored at 4°C and was manipulated within 4 days of preparation. The concentration was estimated by applying the equation C=A260nm/ε×b where C is the concentration of DNA solution, A is the absorbance at wavelength 260 nm, b is the path length and ε is the molar extinction coefficient of DNA that equals 6600 M^−1 cm^−1. The purity also was calculated using the absorbance ratio at wavelength 260 and 280 respectively, which was 1.8 indicating free DNA from protein contamination. Stock solutions of compounds 3b and 3c were prepared by dissolving in DMSO.
The interaction between the selected compounds (3b and 3c) and CT-DNA was assessed through the spectrophotometric titration method. In brief, a fixed concentration of compounds (25 μM) was mixed with an accumulative addition of CT-DNA (0–60 μM) at room temperature with a constant DMSO percentage of 5%. After 5 min from each addition, the UV–Vis absorption spectrum (250–650 nm) was recorded. The hyper/hypochromic percentage change at the characteristic peak of 3b and 3c was assessed using the formula: H%=Afree-Abound/Abound×100 . […] Standard Gibbs free energy (ΔG°) was calculated using the equation ΔG° = − RTlnKb (where T is the temperature, 298 K; R is the universal gas constant, 8.314 J K^−1 mol^−1).

As to `N#CC(=Cc1cn(-c2ccccc2)nc1-c1cccs1)C(=O)Nc1nccs1` [Compound 3b, 2-Cyano-3-(1-phenyl-3-(thiophen-2-yl)-1H-pyrazol-4-yl)-N-(thiazol-2-yl)acrylamide], the “n (binding site numbers)” value in the data set on CT-DNA-EtBr is listed as 0.99. Further, in the data set with CT-DNA, the blue shift is reported as ~ 1 nm.

Consider `N#CC(=Cc1cn(-c2ccccc2)nc1-c1cccnc1)C(=O)Nc1nccs1` [Compound 3c, 2-Cyano-3-(1-phenyl-3-(pyridin-3-yl)-1H-pyrazol-4-yl)-N-(thiazol-2-yl)acrylamide], for which, in the data set on CT-DNA-EtBr, the “n (binding site numbers)” value is on record as 0.90. For the same compound, the blue shift in the data set with CT-DNA is on record as ~ 1 nm.
